## Assay results

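A counterscreen of light output from a stable CMV-driven luciferase line in HEK293 cells, measured one day after compound addition.
Percent change in reporter signal versus neutral control wells at the top tested concentration; more negative values mean stronger inhibition.
Inconclusive means the independent runs disagreed, the fit was flat at 30 to 70% inhibition, or the curve fit was poor.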

Values are in %.
All entries here are filed as inconclusive.
These entries are mostly ones the record files as inconclusive; other results of the assay are not listed here.

compound | tested on / at | activity change (%)
C[C@@H]1CN([C@H](C)CO)C(=O)c2cc(NS(=O)(=O)c3ccc(Cl)cc3)ccc2O[C@@H](C)CCCCO[C@H]1CN(C)C(=O)Nc1ccc(C(F)(F)F)cc1 | at 35 µM (top of the series) | -38.34
CCOc1ccc(CCN2C(=S)N([C@@H](Cc3ccc(O)cc3)CN3CCC[C@@H]3CN3C(=S)NC[C@@H]3CC(C)C)C[C@@H]2Cc2ccc(O)cc2)cc1 | at 35 µM (top of the series) | -31.25
NC(N)=NN=C(c1ccc(F)cc1)c1ccc(C(F)(F)F)cc1 | at 35 µM (top of the series) | -21.08
C[C@@H]1CCCCO[C@H](CN(C)Cc2ccc(Cl)c(Cl)c2)[C@H](C)CN([C@@H](C)CO)C(=O)c2cc(NC(=O)Nc3ccc(C(F)(F)F)cc3)ccc2O1 | at 35 µM (top of the series) | -47.2
C[C@H](O)[C@@H]1CN2CCc3c([nH]c4ccc(-c5ccc6c(c5)OCO6)cc34)[C@@H]2C[C@@H]1N(C)C(=O)NC1CCCCC1 | at 35 µM (top of the series) | -46.31
COc1cccc(-c2ccc(C3[C@@H]4CN(C(=O)C5CC5)C[C@H]3N4)cc2)c1 (stereo partly drawn) | at 35 µM (top of the series) | -48.4
CC(=NNC(=S)N1CCC1)c1ccccn1 | at 35 µM (top of the series) | 0.969
CC(C)(C)OC(=O)[C@H](Cc1ccccc1)NC(=O)c1nc[nH]c1C(=O)N[C@@H](Cc1ccccc1)C(=O)OC(C)(C)C | at 35 µM (top of the series) | -13.92
O=C(O)c1ccc(N/N=C/c2ccc3c(c2)OCO3)cc1 | at 35 µM (top of the series) | -91.21
O=C(CCl)Nc1cc2[nH]c(=O)[nH]c2cc1Br | at 35 µM (top of the series) | -40.47
CC(C)(C)N(Cc1ccc2c(c1)OCO2)C(=O)/C=C\S(=O)c1ccccc1 (stereo not drawn) | at 35 µM (top of the series) | -33.73
CCOC(=O)c1cnn(CCOC(=O)c2cccc(F)c2)c1NC(=O)c1cccc(F)c1 | at 35 µM (top of the series) | -30.68
CC(C)(C)C(=O)Nc1ccc(NC(=O)c2ccco2)nc1 | at 35 µM (top of the series) | -91.99
O=c1c(Cl)c(Cl)cnn1-c1ccccc1 | at 35 µM (top of the series) | 6.836
COc1ccc2c(COC(=O)CNC(=O)C34CC5CC(CC(C5)C3)C4)cc(=O)oc2c1 | at 35 µM (top of the series) | 44.23
CC(=NNc1cc(C)c2ccccc2n1)c1ccccn1 | at 35 µM (top of the series) | -9.257
C[C@@H]1CCCCO[C@H](CN(C)C(=O)Nc2ccc(C(F)(F)F)cc2)[C@@H](C)CN([C@@H](C)CO)C(=O)c2cc(NS(=O)(=O)c3ccc(F)cc3)ccc2O1 | at 35 µM (top of the series) | -53.79
C[C@H]1CCCCO[C@H](CN(C)S(=O)(=O)c2ccccc2)[C@@H](C)CN([C@@H](C)CO)C(=O)c2cc(NS(=O)(=O)c3ccc(Cl)cc3)ccc2O1 | at 35 µM (top of the series) | -16.86
COC(=O)C12OCC34C(CC5C(C)=C(O)C(=O)CC5(C)C3C(O)C1O)OC(=O)C(OC(=O)/C=C(\C)C(C)C)C24 (stereo not drawn) | at 35 µM (top of the series) | -72.77
C[C@@H]1CCCCO[C@H](CN(C)Cc2ccc(C(F)(F)F)cc2)[C@H](C)CN([C@H](C)CO)C(=O)c2cc(NS(=O)(=O)c3ccc(Cl)cc3)ccc2O1 | at 35 µM (top of the series) | -68.95
CCS(=O)(=O)c1ncc(Cl)c(C(=O)Nc2ccc(S(=O)(=O)N3CCC(C)CC3)cc2)n1 | at 35 µM (top of the series) | -70.17
COc1ccc(NC(=O)N2CCCCN3[C@H](C2)[C@@H](c2ccc(C#Cc4ccccc4)cc2)[C@@H]3CO)cc1 | at 35 µM (top of the series) | -59.21
C[C@@H]1CCCCO[C@@H](CN(C)C(=O)Nc2ccc(C(F)(F)F)cc2)[C@H](C)CN([C@@H](C)CO)C(=O)c2cc(NC(=O)Nc3ccc(C(F)(F)F)cc3)ccc2O1 | at 35 µM (top of the series) | -35.52
O=C(C[C@@H]1C[C@@H]2c3cc(NS(=O)(=O)c4ccc(F)cc4)ccc3O[C@@H]2[C@@H](CO)O1)NCc1ccc(Oc2ccccc2)cc1 | at 35 µM (top of the series) | -37.42
Cc1ccc(S(=O)(=O)Nc2ccc3c(c2)C(=O)N([C@H](C)CO)C[C@@H](C)[C@@H](CN(C)CC2CCCCC2)OCCCC[C@@H](C)O3)cc1 | at 35 µM (top of the series) | -15.14
C[C@H]1CCCCO[C@@H](CN(C)S(=O)(=O)c2ccccc2)[C@@H](C)CN([C@@H](C)CO)C(=O)c2cc(NC(=O)Nc3ccc(C(F)(F)F)cc3)ccc2O1 | at 35 µM (top of the series) | -40.51
O=C1c2cccc3cc([N+](=O)[O-])cc(c23)C(=O)N1CCN1CCCC1 | at 35 µM (top of the series) | -41.49
Cc1ccc(/C=N/NC(=O)c2ccccn2)o1 | at 35 µM (top of the series) | 55.82
C=CCn1c(C)cc(C2=NNC(=NCC)SC2)c1C | at 35 µM (top of the series) | -93.96
CC(=O)/C=C/n1c(=S)oc2ccccc21 | at 35 µM (top of the series) | -38.35
COc1ccc(OCc2cccc(C(=O)Nc3cc(C)on3)c2)cc1 | at 35 µM (top of the series) | -25.6
C=C1C(=O)O[C@@H]2C[C@@H](C)[C@@H]3C=CC(=O)[C@@]3(C)[C@@H](OC(C)=O)[C@H]12 | at 35 µM (top of the series) | -95.81
O=C(Nc1ccccc1)N1C[C@@H]2N[C@H](C1)[C@@H]2c1ccc(/C=C/c2ccccc2)cc1 | at 35 µM (top of the series) | 3.462
COc1cc(/C=C2\COC/C(=C\c3cc(OC)c(OC)c(OC)c3)C2=O)cc(OC)c1OC | at 35 µM (top of the series) | 240.1
C[C@@H]1CCCCO[C@@H](CN(C)C(=O)Nc2ccc(C(F)(F)F)cc2)[C@H](C)CN([C@H](C)CO)C(=O)c2cc(NS(=O)(=O)c3cccs3)ccc2O1 | at 30 µM (top of the series) | -24.5
C[C@@H]1CN([C@H](C)CO)C(=O)c2cc(NS(=O)(=O)c3ccc(Cl)cc3)ccc2O[C@@H](C)CCCCO[C@@H]1CN(C)CC1CCCCC1 | at 35 µM (top of the series) | -40.19
N#C[C@H]1[C@H](c2ccc(C#Cc3ccccc3F)cc2)[C@H](CO)N1C(=O)C1CCC1 | at 35 µM (top of the series) | -35.42
O=C1/C(=C/c2cccc(Br)c2)SC(=S)N1CCC(=O)N(CCO)c1ccccc1 | at 35 µM (top of the series) | 54.19

For reference, 2 entries once more:

compound,tested on / at,activity change (%)
O=C1/C(=C/c2cccc(Br)c2)SC(=S)N1CCC(=O)N(CCO)c1ccccc1,at 35 µM (top of the series),54.19
C[C@@H]1CCCCO[C@H](CN(C)Cc2ccc(Cl)c(Cl)c2)[C@H](C)CN([C@@H](C)CO)C(=O)c2cc(NC(=O)Nc3ccc(C(F)(F)F)cc3)ccc2O1,at 35 µM (top of the series),-47.2

The results are deposited in PubChem (AID743020; Broad Institute, 2013).